No constants are given. Whether binding was seen depends on the method and setting. Binding seen in cells or lysates may run through a third protein.
Target: Dynein intermediate chain (endogenous, mouse brain) (mouse (endogenous in brain))
Assay: co-IP

binding: no binding
B1: GM130 (endogenous, mouse brain) (protein, UniProt Q921M4 1-999)
chain: MWPPRFPPPRPGMSEETRQSKLAAAKKKLREYQQKNSPGVPAGAKKKKKIKNGHSPERPTASDCQSPENVPTDHIAPAPPTAATDTMFLGVTPSPDADLTQSHDAGNCSNLMEETKTFSSTESLRQLSQQLNGLVSESTSYINGEGLTSSNMKELENRYQELAVALDSSYVTNKQLSSTIEELKQQNQDTLDQLEKEKKDYQQKLAKEQGSLREQLQVHIQTIGILVSEKAELQTALAHTQQAARQKAGESEDLASRLQSSRQRVGELERTLSTVSTQQKQADRYNKDLTKERDALKLELYKNSKSNEDLRQQNSELEEKLRVLVAEKAAAQLGVEELQKKLEMSELLLQQFSSQSSAAGGNEQLQHAMEERAQLETHVSQLMESLKQLQVERDQYAENLKGESAMWQQRVQQMAEQVHTLKEEKEHRERQVQELETSLAALRSQMEEPPPPEPPAGPSEAEEQLQGEVEQLHKELERLTGQLRAQVQDNESLSHLNREQEGRLLELEREAQRWSEQAEERKQILESMQSDRTTISRALSQNRELKEQLAELQNGFVRLTNENMEITSALQSEQHVKKELARKLGELQERLGELKETVELKSQEAQGLQEQRDQCLSHLQQYAAAYQQHLAAYEQLTSEKEAIHKQLLLQTQLMDQLQHEEVQGKMAAELARQELQEAQERLKATSQENQQLQAQLSLLVLPGEGDVDQEEEDEEVPQSSLAIPEDLDSREAMVAFFNAAIARAEEEQARLRVQLKEQKARCRSLSHLAAPVQSKLEKEAVVPRNVDDSASEESNQALHVAMEKLQSRFLEVMQEKVELKERVEELEHCCIQLSGETDTIGEYIALYQNQRAVLKARHLEKEEYISRLAQDKEEMKVKLLELQELVLRLVNERNEWQGKFLAVSQNPGDVLTPVPTGSQEFGAADQQDDLREVSLADDIEPAQGEAGVPAPHENPTAQQIMQLLREIQNPRERPGLGSNPCIPFFYRADENDEVKIMVV

Reference: article doi:10.1101/556266
